According to the supplement of paper PMC11546906:
The list shows a part of the results. Single values are uncertain here, since repeats match poorly.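 Screen of FDA-approved drugs, each combined with colistin at one-eighth of its MIC, against a multidrug-resistant mcr-1-positive clinical E. coli isolate; growth read as OD600 after 24 h. Bacteria without drug were the growth control and plain broth the blank. A combination counted as active when OD600 fell below 0.2.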

What follows are compounds tested on Escherichia coli 42 (mcr-1-positive clinical isolate) (assay: OD600 after 24 h growth with compound plus colistin (absorbance units (OD600)); higher = more bacterial growth (less inhibition)). Conditions: first compound 25 µM; colistin concentration 0.5 ug/mL; incubation time 24 h; 37 °C.

OD600, inactive:
C=CC[N+]1([C@H]2C[C@H]3[C@@H]4CC[C@H]5C[C@H](O)[C@@H](N6CCOCC6)C[C@]5(C)[C@H]4CC[C@]3(C)[C@H]2OC(C)=O)CCCC1 [Rocuronium bromide] + CCC(C)CCCC(=O)N[C@@H](CCN)C(=O)N[C@H](C(=O)N[C@@H](CCN)C(=O)N[C@H]1CCNC(=O)[C@H]([C@@H](C)O)NC(=O)[C@H](CCN)NC(=O)[C@H](CCN)NC(=O)[C@H](CC(C)C)NC(=O)[C@@H](CC(C)C)NC(=O)[C@H](CCN)NC1=O)[C@@H](C)O [colistin] 0.941, S=c1nc[nH]c2nc[nH]c12 [6-Mercaptopurine hydrate] + CCC(C)CCCC(=O)N[C@@H](CCN)C(=O)N[C@H](C(=O)N[C@@H](CCN)C(=O)N[C@H]1CCNC(=O)[C@H]([C@@H](C)O)NC(=O)[C@H](CCN)NC(=O)[C@H](CCN)NC(=O)[C@H](CC(C)C)NC(=O)[C@@H](CC(C)C)NC(=O)[C@H](CCN)NC1=O)[C@@H](C)O [colistin] 1.1, CO[C@@]1(NC(=O)CSCC#N)C(=O)N2C(C(=O)O)=C(CSc3nnnn3C)CS[C@@H]21 [Cefmetazole sodium] + CCC(C)CCCC(=O)N[C@@H](CCN)C(=O)N[C@H](C(=O)N[C@@H](CCN)C(=O)N[C@H]1CCNC(=O)[C@H]([C@@H](C)O)NC(=O)[C@H](CCN)NC(=O)[C@H](CCN)NC(=O)[C@H](CC(C)C)NC(=O)[C@@H](CC(C)C)NC(=O)[C@H](CCN)NC1=O)[C@@H](C)O [colistin] 0.978
